Reference: PMC9197526
Residue numbers refer to the chain shown, from its start. Results are given in words; binding and its absence hold for the method and conditions named. In cells and extracts the contact can be indirect. Some entries that bind do so weakly or less than the wild type. Tags and fused reporters may be left off the sequences shown.

The chains behind the UniProt entries cited, without tags or fusion partners. Residues count along the entry.
UniProt Q13705, residues 19-512: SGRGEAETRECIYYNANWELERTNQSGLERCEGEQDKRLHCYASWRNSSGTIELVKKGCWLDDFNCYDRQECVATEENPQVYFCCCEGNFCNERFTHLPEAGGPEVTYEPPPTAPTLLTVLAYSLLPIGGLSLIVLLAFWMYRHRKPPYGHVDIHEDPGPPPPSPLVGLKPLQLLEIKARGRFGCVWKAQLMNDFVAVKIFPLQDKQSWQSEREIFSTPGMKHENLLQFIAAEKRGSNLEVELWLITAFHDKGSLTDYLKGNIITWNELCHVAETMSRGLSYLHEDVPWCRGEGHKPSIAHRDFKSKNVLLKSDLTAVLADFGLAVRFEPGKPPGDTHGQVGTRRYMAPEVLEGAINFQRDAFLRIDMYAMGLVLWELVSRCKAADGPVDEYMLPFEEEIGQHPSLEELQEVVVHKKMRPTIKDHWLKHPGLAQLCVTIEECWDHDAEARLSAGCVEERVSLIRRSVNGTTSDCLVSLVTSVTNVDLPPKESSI

Columns and labels:
[1] = target: T1, Myc-tagged ACVR1 (wild type) (UniProt Q04771); experiment: co-IP; Myc immunoprecipitation (Myc-IP kit) from membrane fractions of transfected W20 cells (HEK293 cells also transfected), 48 h after transfection, serum-free media with or without ACVRIIB-Fc; blots with anti-ACVR1 and anti-HA
T1 sequence: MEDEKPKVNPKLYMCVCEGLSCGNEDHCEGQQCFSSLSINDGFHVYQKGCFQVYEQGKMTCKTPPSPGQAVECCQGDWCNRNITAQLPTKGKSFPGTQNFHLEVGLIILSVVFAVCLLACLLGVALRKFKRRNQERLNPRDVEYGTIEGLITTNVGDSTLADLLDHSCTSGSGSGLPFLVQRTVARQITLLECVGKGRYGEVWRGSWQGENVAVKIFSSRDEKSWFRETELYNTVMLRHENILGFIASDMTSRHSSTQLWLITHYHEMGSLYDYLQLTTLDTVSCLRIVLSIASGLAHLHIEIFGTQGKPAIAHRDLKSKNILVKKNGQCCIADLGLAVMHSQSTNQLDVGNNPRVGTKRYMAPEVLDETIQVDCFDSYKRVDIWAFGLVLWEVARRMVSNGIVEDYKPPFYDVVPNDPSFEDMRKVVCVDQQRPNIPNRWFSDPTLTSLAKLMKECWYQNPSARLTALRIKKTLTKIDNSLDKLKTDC

[2] = target: T2, Myc-tagged ACVR1[R206H] (UniProt Q04771); experiment: as above
T2 sequence: T1 sequence with R186H

HA-tagged ACVR2B (from UniProt Q13705 19-512) (receptor)
binding [1]: binds
binding [2]: binds
